In article PMC11102450:
Results are given in words; binding and its absence hold for the method and conditions named. Binding seen in cells or lysates may run through a third protein. Some results given as binding are weak or reduced against the parent protein; the word gives no strength.

Biological target: T1, MYBBP1A (human (endogenous in A549 and HCC827)) (UniProt Q9BQG0)
T1 sequence: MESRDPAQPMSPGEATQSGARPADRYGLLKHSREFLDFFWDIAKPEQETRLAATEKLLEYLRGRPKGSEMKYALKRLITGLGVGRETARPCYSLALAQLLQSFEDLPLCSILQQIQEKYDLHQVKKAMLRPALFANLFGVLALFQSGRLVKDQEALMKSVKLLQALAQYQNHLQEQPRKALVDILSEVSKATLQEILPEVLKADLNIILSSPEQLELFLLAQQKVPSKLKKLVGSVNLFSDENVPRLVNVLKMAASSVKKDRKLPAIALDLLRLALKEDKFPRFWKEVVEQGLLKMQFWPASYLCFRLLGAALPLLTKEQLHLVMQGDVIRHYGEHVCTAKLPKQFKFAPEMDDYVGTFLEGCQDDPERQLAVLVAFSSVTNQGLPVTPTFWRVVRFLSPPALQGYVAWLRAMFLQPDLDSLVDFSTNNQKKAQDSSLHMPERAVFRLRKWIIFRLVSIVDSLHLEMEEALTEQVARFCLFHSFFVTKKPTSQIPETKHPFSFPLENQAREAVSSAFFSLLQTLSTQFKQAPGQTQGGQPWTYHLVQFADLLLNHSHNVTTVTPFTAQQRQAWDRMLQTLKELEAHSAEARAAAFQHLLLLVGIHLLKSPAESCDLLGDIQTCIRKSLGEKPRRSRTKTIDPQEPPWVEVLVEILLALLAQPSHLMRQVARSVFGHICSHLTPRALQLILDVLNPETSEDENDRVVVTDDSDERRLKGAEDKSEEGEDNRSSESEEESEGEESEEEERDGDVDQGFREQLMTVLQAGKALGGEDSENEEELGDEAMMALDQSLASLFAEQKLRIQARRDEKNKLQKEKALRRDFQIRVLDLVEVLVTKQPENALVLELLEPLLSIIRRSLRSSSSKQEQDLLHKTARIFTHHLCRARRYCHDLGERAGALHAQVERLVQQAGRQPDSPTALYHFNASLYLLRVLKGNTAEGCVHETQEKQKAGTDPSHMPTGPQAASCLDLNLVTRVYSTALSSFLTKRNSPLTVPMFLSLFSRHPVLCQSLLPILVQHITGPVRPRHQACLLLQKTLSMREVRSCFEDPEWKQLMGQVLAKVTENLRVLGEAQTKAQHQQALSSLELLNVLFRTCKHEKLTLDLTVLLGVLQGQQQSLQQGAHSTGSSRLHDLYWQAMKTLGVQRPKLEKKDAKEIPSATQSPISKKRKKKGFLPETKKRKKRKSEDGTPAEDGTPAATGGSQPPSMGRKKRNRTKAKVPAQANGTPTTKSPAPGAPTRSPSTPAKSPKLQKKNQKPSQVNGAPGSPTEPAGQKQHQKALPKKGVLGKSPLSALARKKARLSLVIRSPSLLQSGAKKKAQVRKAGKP
Assay: co-IP; endogenous proteins in A549 and HCC827 cell lysates (RIPA buffer with protease inhibitor cocktail); incubated with anti-MYBBP1A or anti-p53 antibody or control IgG at 4 °C overnight, Protein A/G PLUS-Agarose beads 4 h, washed 3 times with RIPA buffer, western blot; GAS5-knockdown cells compared with control cells

## p53 (from UniProt P04637 1-393)
  binding: binds
